Assay results reported in publication PMC13536730.
No constants are given. Whether binding was seen depends on the method and setting. Binding seen in cells or lysates may run through a third protein. Some binding calls cover weakened binding; strength is not graded here.

Biological target: ATP1A3 (sodium pump α3 subunit), endogenous in U87-MG cells (human (endogenous in U87-MG)) (UniProt P13637)
Assay: co-IP; U87-MG cell lysates (400 μg total protein), precleared with protein A/G-agarose and normal rabbit IgG; anti-ATP1A3 antibody 5-6 h at 4°C; Western blot with rabbit anti-SNRPG and mouse anti-ATP1A3

small nuclear ribonucleoprotein polypeptide G (SNRPG), endogenous in U87-MG cells (from UniProt P62308 1-76)
binding: binds
